# Measurements taken from PubChem BioAssay AID1347131 (National Center for Advancing Translational Sciences (NCATS), 2019).
# Out of some 410,000 compounds screened, about 2,000 (0.49%) were called active. Inconclusive results, whose numbers are uncertain, are shown with a selection of clear calls. The call rests on the fitted dose curve; tested in HEK293 reporter line. Potencies beside an inconclusive call are fits to weak or partial responses and may not hold up.
# Experiment: qHTS Assay for Foot and Mouth Disease Virus Antivirals: Primary Screen against the MLPCN compound library; further: nearly all actives have a fitted effect of over 55% in size
# Conditions: FMDV antiviral cell-based qHTS; activity, negative = inhibition: at 57.9 µM (top of the series)
# Potency means the concentration at half of the fitted maximal effect.
SMILES,Potency,"activity, negative = inhibition"
COC(=O)c1ccc(CNC(=O)Cn2cnc3c(SC)nc(N)nc32)cc1,"inconclusive: 3.98 µM [inhibitor, full curve]",
CCC(C)n1c(SCC(=O)Nc2ccccc2C(=O)OC)nc2ccsc2c1=O (stereo unspecified),"inconclusive: 20 µM [inhibitor, partial curve]",
CCN1CCN(c2ncc3c(n2)CC(c2ccc(OC)c(OC)c2)CC3=O)CC1 (stereo unspecified),"inconclusive: 20 µM [inhibitor, partial curve, poor fit]",
O=C(CSc1ncnc2ccccc12)c1cccs1,"inconclusive: 39.8 µM [inhibitor, single point]",
Cc1ccc(NC(=O)CN2C(=O)CCSc3ccccc32)c(C)c1,"inconclusive: 5.01 µM [inhibitor, partial curve]",
Nc1nc(CCl)nc(N(c2ccccc2)c2ccccc2)n1,"inconclusive: 31.6 µM [inhibitor, partial curve, poor fit]",
Cc1nc(N2CCOCC2)c2c3c(sc2n1)CCC3,"inconclusive: 31.6 µM [inhibitor, partial curve, poor fit]",
O=C(c1ccncc1)N1CCN(c2cc(-c3ccccc3)nc3cc(-c4cccc(Cl)c4)nn23)CC1,"inconclusive: 28.2 µM [inhibitor, partial curve, poor fit]",
CC(=O)OC(C)(C)/C=C/C(=O)[C@](C)(O)[C@H]1[C@H](O)C[C@@]2(C)[C@@H]3CC=C4[C@H](C[C@H](O)C(=O)C4(C)C)[C@]3(C)C(=O)C[C@]12C,"inconclusive: 17.8 µM [inhibitor, partial curve, poor fit]",
O=C(Nc1ccccc1Cc1ccccc1)c1ccccc1NS(=O)(=O)c1ccc(Cl)s1,inactive,
CN(c1ccccc1)S(=O)(=O)c1cccc(NC(=O)c2cccc(C#N)c2)c1,"inconclusive: 25.1 µM [inhibitor, partial curve, poor fit]",
Cc1[nH]nc2c1C(C1CC=CCC1)C(C#N)=C(N)O2 (stereo unspecified),"inconclusive: 25.1 µM [inhibitor, partial curve, poor fit]",
C=CCN1CC[C@]23c4c5ccc(O)c4O[C@H]2/C(=N/NC(=O)c2ccccc2)CC[C@@]3(O)[C@H]1C5,inactive,
COc1cc(-c2noc(-c3ccc(NCC4CCCO4)c([N+](=O)[O-])c3)n2)cc(OC)c1OC (stereo unspecified),"inconclusive: 11.2 µM [inhibitor, partial curve, poor fit]",
COCCn1c(=S)[nH]c2cc(C(=O)N3CCN(Cc4ccc5c(c4)OCO5)CC3)ccc2c1=O,"inconclusive: 14.1 µM [inhibitor, partial curve, poor fit]",
CC12C(=O)N(c3cccc(OC(=O)c4ccco4)c3)C(=O)C1C1c3ccccc3C2c2ccccc21 (stereo unspecified),inactive,
Cc1cc(NCCCOC(C)C)n2c(nc3ccccc32)c1C#N,"inconclusive: 20 µM [inhibitor, partial curve, poor fit]",
O=C(Nc1ccc(Cc2ccncc2)cc1)c1ccc(Cl)c([N+](=O)[O-])c1,"inconclusive: 28.2 µM [inhibitor, partial curve, poor fit]",

# Gathered by group: the compounds so far containing a cyano group
SMILES,Potency,"activity, negative = inhibition"
CN(c1ccccc1)S(=O)(=O)c1cccc(NC(=O)c2cccc(C#N)c2)c1,"inconclusive: 25.1 µM [inhibitor, partial curve, poor fit]",
Cc1[nH]nc2c1C(C1CC=CCC1)C(C#N)=C(N)O2 (stereo unspecified),"inconclusive: 25.1 µM [inhibitor, partial curve, poor fit]",
Cc1cc(NCCCOC(C)C)n2c(nc3ccccc32)c1C#N,"inconclusive: 20 µM [inhibitor, partial curve, poor fit]",

# (next part)

SMILES,Potency,"activity, negative = inhibition"
COc1ccc(N2C(=O)/C(=C/c3cccs3)C(=O)NC2=S)cc1,"inconclusive: 25.1 µM [inhibitor, partial curve, poor fit]",
CC(C(=O)c1ccc(-c2ccccc2)cc1)[n+]1ccccc1 (stereo unspecified),"inconclusive: 12.6 µM [inhibitor, partial curve, poor fit]",
COc1ccc(N2C(=O)/C(=C/c3ccc(C)o3)C(=O)NC2=S)c(OC)c1,"inconclusive: 20 µM [inhibitor, partial curve, poor fit]",
CN(C)c1nc(N/N=C/c2c[nH]c3ccccc23)nc(N2CCOCC2)n1,,inconclusive: -35.9% [inhibitor]
CSC1=NC=C(C#N)C2=NC(c3c(Cl)cccc3Cl)NN12 (stereo unspecified),"inconclusive: 39.8 µM [inhibitor, partial curve, poor fit]",
Cc1ccc(OCCSc2nc3ccc(NC(=O)c4ccc(F)cc4)cc3s2)cc1,inactive,
O=C(c1ccccc1)N(Nc1ccccc1)c1ccccc1,"inconclusive: 15.8 µM [inhibitor, partial curve, poor fit]",
N#CC(C#N)=C/C(C#N)=C(/N)N1CCN(c2ccc(Cl)cc2)CC1,"inconclusive: 17.8 µM [inhibitor, partial curve, poor fit]",
COc1ccc2c(CC(=O)N3CCN(S(=O)(=O)c4cccs4)CC3)coc2c1,"inconclusive: 25.1 µM [inhibitor, partial curve, poor fit]",
O=C(/C=C/c1ccc(OC2CSC2)cc1)c1ccccc1,"inconclusive: 39.8 µM [inhibitor, single point]",
COc1cccc2cc(C(=O)Nc3cccc(C)n3)c(=O)oc12,active: 8.91 µM,
CS(=O)(=O)c1ccc(Cl)c(NC(=O)CCl)c1,"inconclusive: 25.1 µM [inhibitor, partial curve, poor fit]",
CC(C)N(CC(=O)Nc1ccc(Cl)cc1C(F)(F)F)C(=O)CCl,"inconclusive: 15.8 µM [inhibitor, partial curve, poor fit]",
CCCc1nc(SCC(=O)Nc2ccc(S(=O)(=O)N(C)C)cc2)c2ccccc2n1,"inconclusive: 11.2 µM [inhibitor, partial curve, poor fit]",
CCN(CC)S(=O)(=O)c1ccc(Cl)c(NC(=O)COC(=O)c2cccn2C)c1,"inconclusive: 12.6 µM [inhibitor, partial curve, poor fit]",
O=C(O)c1cc(N/N=C/C(Cl)=C/c2ccccc2)ccc1Cl,"inconclusive: 8.91 µM [inhibitor, partial curve, poor fit]",
CCN(CC)S(=O)(=O)c1cccc(NC(=O)c2ccc(-n3nc(C)cc3C)cc2)c1,"inconclusive: 20 µM [inhibitor, partial curve, poor fit]",
COc1ccc2cc(-c3cc(C(=O)O)c4ccccc4n3)ccc2c1,"inconclusive: 10 µM [inhibitor, partial curve, poor fit]",
